This test deals with T1, SH2D4A-HA-LN151 (Src homology 2 domain-containing 4A, BiFC fusion) (UniProt Q9H788).
T1 sequence: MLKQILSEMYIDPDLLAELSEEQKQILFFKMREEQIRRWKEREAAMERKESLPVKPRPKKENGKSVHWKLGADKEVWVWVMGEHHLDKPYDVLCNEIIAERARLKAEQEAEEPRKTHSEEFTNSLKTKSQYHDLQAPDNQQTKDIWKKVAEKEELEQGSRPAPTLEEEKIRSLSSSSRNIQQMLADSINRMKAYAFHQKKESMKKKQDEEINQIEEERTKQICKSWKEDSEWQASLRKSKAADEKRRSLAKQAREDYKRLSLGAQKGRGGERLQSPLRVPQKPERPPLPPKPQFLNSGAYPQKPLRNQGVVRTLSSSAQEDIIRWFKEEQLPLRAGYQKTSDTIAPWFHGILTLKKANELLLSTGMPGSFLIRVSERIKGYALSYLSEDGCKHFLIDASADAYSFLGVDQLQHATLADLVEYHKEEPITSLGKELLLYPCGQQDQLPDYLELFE
Kind of test: split reporter; BiFC with mLumin fragments LN151 and LC151 in transfected HuH1 cells, live-cell imaging (ex 588 nm, em 623 nm), before and after stimulation with IL-6 (20 ng/ml).

Sequences of proteins named here, by UniProt entry; tags and fusion partners are left off.
UniProt P40763: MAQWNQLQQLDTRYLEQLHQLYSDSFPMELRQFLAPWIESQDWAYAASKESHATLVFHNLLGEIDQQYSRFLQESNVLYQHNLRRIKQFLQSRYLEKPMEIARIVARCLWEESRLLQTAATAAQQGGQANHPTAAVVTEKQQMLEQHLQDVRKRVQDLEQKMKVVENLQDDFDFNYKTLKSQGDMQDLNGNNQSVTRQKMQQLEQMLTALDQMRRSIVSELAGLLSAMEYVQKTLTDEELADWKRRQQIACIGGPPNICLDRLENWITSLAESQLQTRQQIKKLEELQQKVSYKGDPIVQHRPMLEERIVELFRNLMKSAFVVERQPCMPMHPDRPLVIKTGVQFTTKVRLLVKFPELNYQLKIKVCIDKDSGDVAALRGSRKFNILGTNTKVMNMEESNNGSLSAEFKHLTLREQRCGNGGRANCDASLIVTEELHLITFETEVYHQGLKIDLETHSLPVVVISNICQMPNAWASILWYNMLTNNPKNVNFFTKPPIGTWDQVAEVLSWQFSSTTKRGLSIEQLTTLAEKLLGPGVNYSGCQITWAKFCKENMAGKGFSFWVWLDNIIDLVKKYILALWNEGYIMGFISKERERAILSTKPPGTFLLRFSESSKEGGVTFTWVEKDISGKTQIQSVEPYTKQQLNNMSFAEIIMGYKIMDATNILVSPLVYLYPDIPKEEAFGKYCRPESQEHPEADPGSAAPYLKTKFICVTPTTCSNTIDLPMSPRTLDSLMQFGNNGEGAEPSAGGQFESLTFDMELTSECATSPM

No constants are given. Whether binding was seen depends on the method and setting. Binding seen in cells or lysates may run through a third protein. Some binding calls cover weakened binding; strength is not graded here. Sequences can lack the tags named with a protein.

On to “STAT3wt-myc-LC151 (Signal Transducer and Activator of Transcription 3, BiFC fusion) (from UniProt P40763 1-770)”, for which the binding entry is given as “binds”.

The values are drawn from PMC7705682.
